Assay results as given in patent US20170363612A1, “COMPOSITIONS AND METHODS RELATING TO PROLIFERATIVE DISORDERS” (Wayne State University, priority 2014, published 2017).
Some entries share one result that the patent states for a list of compounds.

System: SET Ribosome
Assay: TPA Reference Standard Response Modifier Assay with ribosome binding translation inhibitors, HEK293 hTRdm-fLUC#13
Format: cell-based, human
Conditions: with 100 nM TPA; FIG. 10B

## CC[C@H]1CN2CCc3cc(OC)c(OC)cc3[C@@H]2C[C@@H]1C[C@H]1NCCc2cc(OC)c(OC)cc21 [emetine, (2S, 3R, 11bS)-2-{{(1R)-6,7-dimethoxy-1,2,3,4-tetrahydroisoquinolin-1-yl]methyl}-3-ethyl-9,10-dimethoxy-2,3,4,6,7,11b-hexahydro-1H-pyrido[2,1-a] isoquinoline]
  doses with SET Blocking activity: above 2.5 uM
